PubChem BioAssay AID1259308, NCATS, 2017
This is a random part of about 59,000 reagents tested. About 1,510 of all reagents (2.6%) count as active. 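Calls use total luciferase alone and ignore viability, so some active siRNAs may act by altering cell number.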

- Assay: 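Knock-downs that increase output of a recombinant reporter protein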 (primary screen)
- System: human HEK293 embryonic kidney cells stably expressing firefly luciferase (HEK-CMV-Luc2-Hygro)
- Reagents: single siRNA against human genes, 0.8 pmol siRNA per well
- Time to read-out: 72 h
- Read-out: 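Reporter luminescence and viable-cell signal on separate replicate plates, given as percent of non-targeting control and median/MAD z-scores, plus per-cell luciferase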
- Reading the numbers: total luciferase, z-score and total luciferase, % of control: higher = more reporter protein produced; luciferase per cell, z-score: higher = more reporter output per viable cell; viable cells, % of control: higher = more viable cells
- Call rule: 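An siRNA counts as active if its total luciferase robust z-score exceeds 3; genes with two or more such siRNAs out of three were retested with fresh siRNAs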
- Meaning of the calls: active = raised luciferase; inactive = no rise

| gene symbol | PubChem SID | total luciferase, z-score | total luciferase, % of control | luciferase per cell, z-score | viable cells, % of control | call |
| --- | --- | --- | --- | --- | --- | --- |
| VPS4A | SID160738524 | -1.45 | 53 | -1.43 | 86.2 | inactive |
| VPS4A | SID160738525 | -1.53 | 51.6 | -0.97 | 74.4 | inactive |
| VPS4A | SID160738526 | -0.719 | 67.6 | -0.898 | 95.7 | inactive |
| FLJ40039 (retired record) | SID160770232 | 3.04 | 142 | 2.57 | 80.8 | active |
| FLJ40039 (retired record) | SID160770233 | 4.24 | 166 | 3.12 | 81.6 | active |
| FLJ40039 (retired record) | SID160770234 | 0.344 | 88.7 | 0.171 | 94.8 | inactive |
| KLF17 | SID160756713 | -1.59 | 50.3 | -0.721 | 68 | inactive |
| KLF17 | SID160756714 | -1.41 | 53.9 | -1.71 | 94.5 | inactive |
| KLF17 | SID160756715 | 0 | 81.9 | 0.12 | 88.7 | inactive |
| CTDSPL2 | SID160740885 | -2.04 | 41.4 | -2.05 | 79.5 | inactive |
| CTDSPL2 | SID160740886 | -0.738 | 67.2 | -0.494 | 85.5 | inactive |
| CTDSPL2 | SID160740887 | -0.257 | 76.8 | 0.151 | 82.5 | inactive |
| SPAST | SID160717254 | -1.47 | 52.6 | -2.08 | 102 | inactive |
| SPAST | SID160717255 | -0.228 | 77.4 | -0.647 | 102 | inactive |
| SPAST | SID160717257 | -0.123 | 79.4 | -0.757 | 108 | inactive |
| RELN | SID160715106 | 0 | 81.9 | -0.295 | 98.9 | inactive |
| RELN | SID160715107 | 0.0525 | 82.9 | -0.27 | 99.5 | inactive |
| RELN | SID160715108 | -0.004 | 81.8 | -0.412 | 102 | inactive |
| PARP9 | SID160751298 | 0.609 | 94 | 0.976 | 81.2 | inactive |
| PARP9 | SID160751299 | -0.639 | 69.2 | -0.86 | 96.9 | inactive |
| PARP9 | SID160751300 | -0.317 | 75.6 | -0.428 | 94.5 | inactive |
| GPR62 | SID160755628 | 0.232 | 86.5 | 0.299 | 89.3 | inactive |
| GPR62 | SID160755629 | -0.0177 | 81.5 | -0.349 | 99.9 | inactive |
| GPR62 | SID160755630 | 0.162 | 85.1 | -0.502 | 109 | inactive |
| GGH | SID160720931 | 0.146 | 84.8 | -0.366 | 104 | inactive |
| GGH | SID160720932 | -0.18 | 78.3 | -0.908 | 111 | inactive |
| GGH | SID160720933 | -0.467 | 72.6 | -0.556 | 93.9 | inactive |

Next part; the last 7 above are carried over.
| gene symbol | PubChem SID | total luciferase, z-score | total luciferase, % of control | luciferase per cell, z-score | viable cells, % of control | call |
| --- | --- | --- | --- | --- | --- | --- |
| PARP9 | SID160751300 | -0.317 | 75.6 | -0.428 | 94.5 | inactive |
| GPR62 | SID160755628 | 0.232 | 86.5 | 0.299 | 89.3 | inactive |
| GPR62 | SID160755629 | -0.0177 | 81.5 | -0.349 | 99.9 | inactive |
| GPR62 | SID160755630 | 0.162 | 85.1 | -0.502 | 109 | inactive |
| GGH | SID160720931 | 0.146 | 84.8 | -0.366 | 104 | inactive |
| GGH | SID160720932 | -0.18 | 78.3 | -0.908 | 111 | inactive |
| GGH | SID160720933 | -0.467 | 72.6 | -0.556 | 93.9 | inactive |
| ZNF833P | SID160767377 | 0.51 | 92 | 0.531 | 89.4 | inactive |
| ZNF833P | SID160767378 | 0.28 | 87.5 | 0.213 | 92.4 | inactive |
| ZNF833P | SID160767379 | -0.251 | 76.9 | 0.33 | 78.8 | inactive |
| ULK2 | SID160722865 | -1.05 | 61 | -1.75 | 108 | inactive |
| ULK2 | SID160722866 | -0.372 | 74.5 | -0.679 | 99.5 | inactive |
| ULK2 | SID160722867 | 0.0976 | 83.8 | -0.783 | 115 | inactive |
| PIK3CB | SID160714338 | 2.83 | 138 | 2.25 | 85.4 | inactive |
| PIK3CB | SID160714339 | 0.24 | 86.7 | 0.211 | 91.6 | inactive |
| PIK3CB | SID160714340 | -0.49 | 72.1 | -1.04 | 106 | inactive |
| TENM1 | SID160726542 | 0.125 | 84.4 | -0.11 | 97 | inactive |
| TENM1 | SID160726545 | 0.296 | 87.8 | 0.0823 | 96 | inactive |
| TENM1 | SID160726549 | -0.139 | 79.1 | -0.258 | 94.6 | inactive |
| SLC67A1 | SID160778439 | 1.22 | 106 | 1.17 | 87.1 | inactive |
| SLC67A1 | SID160778440 | 0.0968 | 83.8 | 0.45 | 83.2 | inactive |
| SLC67A1 | SID160778441 | 3.9 | 160 | 2.64 | 89 | active |
| LSM10 | SID160735132 | -0.204 | 77.8 | -0.492 | 99 | inactive |
| LSM10 | SID160753058 | -1.66 | 48.8 | -0.932 | 69.7 | inactive |
| LSM10 | SID160753059 | -0.787 | 66.2 | -0.68 | 88.5 | inactive |
| CHSY1 | SID160732160 | 2.29 | 128 | 2.31 | 77.6 | inactive |
| CHSY1 | SID160732169 | -1.19 | 58.2 | -0.418 | 72.6 | inactive |
| CHSY1 | SID160732178 | 2.44 | 130 | 2.17 | 82.2 | inactive |
| TXNL4A | SID160729486 | -0.493 | 72.1 | -0.147 | 83.7 | inactive |
| TXNL4A | SID160729488 | 0.0488 | 82.9 | 0.101 | 90.2 | inactive |
| TXNL4A | SID160730478 | -0.0179 | 81.5 | -0.0707 | 92.8 | inactive |
| PDE6B | SID160714037 | 0.864 | 99.1 | 0.886 | 87.7 | inactive |
| PDE6B | SID160714038 | -1.35 | 55.1 | -1.23 | 85.1 | inactive |
| PDE6B | SID160714039 | 1.45 | 111 | 0.812 | 99.9 | inactive |
| EMP2 | SID160760131 | 1.51 | 112 | 0.81 | 101 | inactive |
| EMP2 | SID160760141 | -0.137 | 79.2 | 0.0618 | 87 | inactive |
| EMP2 | SID160760151 | -0.585 | 70.2 | -0.469 | 88.8 | inactive |
| PIR | SID160720297 | 0.132 | 84.5 | -0.492 | 107 | inactive |
| PIR | SID160720298 | 2.04 | 122 | 1.95 | 82 | inactive |
| PIR | SID160720299 | 0.103 | 83.9 | -0.464 | 106 | inactive |
| ARHGAP11A | SID160723182 | -2.35 | 35.1 | -0.722 | 47.5 | inactive |
| ARHGAP11A | SID160723186 | -0.0911 | 80.1 | -0.151 | 93.1 | inactive |
| ARHGAP11A | SID160723187 | -0.0889 | 80.1 | 0.404 | 80.5 | inactive |
| KCNAB1 | SID160719450 | 0.347 | 88.8 | -0.42 | 111 | inactive |
| KCNAB1 | SID160719451 | -1.45 | 53.1 | -1.6 | 90.3 | inactive |
| KCNAB1 | SID160719452 | 0.0325 | 82.5 | -1.1 | 123 | inactive |
| ZCCHC3 | SID160753208 | -0.84 | 65.2 | -0.475 | 82.5 | inactive |
| ZCCHC3 | SID160753209 | 0.123 | 84.3 | -0.0141 | 94.6 | inactive |
| ZCCHC3 | SID160753210 | 0.136 | 84.6 | -0.106 | 97.2 | inactive |
| TUBB6 | SID160752443 | -0.245 | 77 | -0.283 | 92.7 | inactive |
| TUBB6 | SID160752444 | 0.983 | 101 | 0.417 | 102 | inactive |
| TUBB6 | SID160752445 | -0.324 | 75.4 | 0.521 | 73.5 | inactive |
| FAM47C | SID160768180 | -0.472 | 72.5 | 0.0492 | 80 | inactive |
| FAM47C | SID160768182 | -0.494 | 72.1 | -0.713 | 97.2 | inactive |
| FAM47C | SID160768183 | 1.79 | 118 | 1.43 | 90.1 | inactive |
